# Reference: the supplement of paper PMC4807443
# Structures can show the parent of a compound that is named as a salt. The list shows a part of the results. The numbers are fractions of the control, whatever unit the source prints. Most values lie at the level of the controls, where differences are scatter.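 MIN6 is a mouse insulinoma beta-cell line that stably carries a lentiviral reporter in which the Pdx1 and Ins1 promoters each drive a nucleus-targeted fluorescent protein; cells were counted by automated imaging with a Hoechst nuclear stain. In the screen, a drug was a possible hit when its Ins1 promoter readout lay beyond two median absolute deviations from the DMSO controls while Pdx1 activity stayed near normal.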
# System: MIN6
# Assay: % Pdx1+ Ins1-low (RFP-only, immature) cells relative to DMSO control (fold of DMSO control); higher = more immature Pdx1+/Ins1-low cells
# Conditions: 8.5 µM; 48 h; glucose 5 mM
row,Structure (SMILES),% Pdx1+ Ins1-low
1,C=C(C)[C@@H]1CC[C@]2(CO)CC[C@]3(C)[C@H](CC[C@@H]4[C@@]5(C)CC[C@H](O)C(C)(C)[C@@H]5CC[C@]43C)[C@@H]12 [Betulin],0.844
2,Nc1cc(N2CCCCC2)nc(N)[n+]1[O-] [Minoxidil],1.06
3,COc1ccc2cc([C@H](C)C(=O)O)ccc2c1 [Naproxen],0.683
4,O=C(O)c1ccccc1OP(=O)(O)O [Fosfosal],0.975
5,C/C=C(/C(=C/C)c1ccc(O)cc1)c1ccc(O)cc1 [Dienestrol],0.954
6,O=c1n(CCCN2CCN(c3cccc(Cl)c3)CC2)nc2ccccn12 [Trazodone hydrochloride],0.66
7,CC1(C)S[C@@H]2[C@H](NC(=O)[C@H](N)c3ccccc3)C(=O)N2[C@H]1C(=O)O [Ampicillin trihydrate],0.56
8,CCCCc1ccc2[nH]c(NC(=O)OC)nc2c1 [Parbendazole],1.04
9,C[C@@H]1C[C@H]2[C@@H]3CCC4=CC(=O)C=C[C@]4(C)[C@@]3(Cl)[C@@H](O)C[C@]2(C)[C@@]1(OC(=O)c1ccco1)C(=O)CCl [Mometasone furoate],1.49
10,CN1CCCN(C(c2ccccc2)c2ccc(Cl)cc2)CC1 (configuration not stated) [Homochlorcyclizine dihydrochloride],0.723
11,Nc1ncnc2c1ncn2C1OC(COP(=O)(O)O)C(O)C1O (configuration not stated) [Adenosine 5'-monophosphate monohydrate],0.696
12,O=C(O)c1cc(/N=N/c2ccc(S(=O)(=O)Nc3ccccn3)cc2)ccc1O [Sulfasalazine],1.3
13,CN/C(=N\CCSCc1nc[nH]c1C)NC#N [Cimetidine],1.02
14,CCc1cccc(CC)c1NC(=O)CN(CC(=O)O)CC(=O)O [Etifenin],1.07
15,CC1(C)S[C@@H]2[C@H](NC(=O)C3(N)CCCCC3)C(=O)N2[C@H]1C(=O)O [Cyclacillin],0.809
16,C[C@@H]1CCC[C@H](C)N1 [(cis-) Nanophine],0.883
17,CC(N)CCCC(C)(C)O (configuration not stated) [Heptaminol hydrochloride],1.05
18,CN1CCCN=C1/C=C/c1cccc(O)c1 [Oxantel pamoate],1.57
19,CC(C)OC(=O)C(C)(C)Oc1ccc(C(=O)c2ccc(Cl)cc2)cc1 [Fenofibrate],0.852
20,"Cc1c(O)c(=O)n(-c2ccccc2)n1C [Antipyrine, 4-hydroxy]",1.12
21,C[C@H]1[C@H](C)CC[C@]2(C(=O)O[C@@H]3O[C@H](CO[C@@H]4O[C@H](CO)[C@@H](O[C@@H]5O[C@H](C)[C@H](O)[C@@H](O)[C@H]5O)[C@H](O)[C@H]4O)[C@@H](O)[C@H](O)[C@H]3O)CC[C@]3(C)C(=CC[C@@H]4[C@@]5(C)C[C@@H](O)[C@H](O)[C@@](C)(CO)[C@@H]5CC[C@]43C)[C@H]12 [Asiaticoside],0.74
22,CN(C)[C@@H]1C(O)=C(C(N)=O)C(=O)[C@@]2(O)C(O)=C3C(=O)c4c(O)cccc4[C@@](C)(O)[C@H]3C[C@@H]12 [Tetracycline hydrochloride],0.944
23,O=C(O)C1CCCNC1 (racemic) [(±)-Nipecotic acid],0.888
24,COCCCC/C(=N\OCCN)c1ccc(C(F)(F)F)cc1 [Fluvoxamine maleate],1.11

row,Structure (SMILES),% Pdx1+ Ins1-low
1,C[C@]12CCC(=O)C=C1CC[C@@H]1[C@@H]2C(=O)C[C@@]2(C)[C@H]1CC[C@]2(O)C(=O)CO [Cortisone],0.795
2,CO[C@H]1/C=C/O[C@@]2(C)Oc3c(C)c(O)c4c(O)c(c(/C=N/N5CCN(C)CC5)c(O)c4c3C2=O)NC(=O)/C(C)=C\C=C\[C@H](C)[C@H](O)[C@@H](C)[C@@H](O)[C@@H](C)[C@H](OC(C)=O)[C@@H]1C [Rifampicin],1.03
3,CCCSc1ccc2[nH]c(NC(=O)OC)nc2c1 [Albendazole],1.09
4,Cc1c(Cl)cccc1Nc1ccccc1C(=O)O [Tolfenamic acid],0.905
5,Cc1ccc(N(CC2=NCCN2)c2cccc(O)c2)cc1 [Phentolamine hydrochloride],1.17
6,O=C(O)CCc1nc(-c2ccccc2)c(-c2ccccc2)o1 [Oxaprozin],0.85
7,Clc1ccc2c(c1)C(N1CCNCC1)=Nc1ccccc1O2 [Amoxapine],1.07
8,O=C1c2ccccc2C(=O)C1c1ccccc1 [Phenindione],1.05
9,CC(C)(Oc1ccc(CCNC(=O)c2ccc(Cl)cc2)cc1)C(=O)O [Bezafibrate],1.11
10,OCCN1CCN(CCCN2c3ccccc3Sc3ccc(C(F)(F)F)cc32)CC1 [Fluphenazine dihydrochloride],1.03
11,c1ccc(CC2=NCCN2)cc1 [Tolazoline hydrochloride],0.849
12,CC[C@H]1OC(=O)[C@H](C)[C@@H](O[C@H]2C[C@@](C)(OC)[C@@H](O)[C@H](C)O2)[C@H](C)[C@@H](O[C@@H]2O[C@H](C)C[C@H](N(C)C)[C@H]2O)[C@](C)(O)C[C@@H](C)C(=O)[C@H](C)[C@@H](O)[C@]1(C)O [Erythromycin],1.37
13,CCn1cc(C(=O)O)c(=O)c2cc(F)c(N3CCNCC3)nc21 [Enoxacin],1.08
14,CC(C(=O)O)c1cccc(Oc2ccccc2)c1 (configuration not stated) [Fenoprofen calcium salt dihydrate],0.533
15,CCCc1ncc(C[n+]2ccccc2C)c(N)n1 [Amprolium hydrochloride],0.997
16,C=C(CC)C(=O)c1ccc(OCC(=O)O)c(Cl)c1Cl [Ethacrynic acid],1.25
17,Nc1ccc(S(=O)(=O)NC(=O)c2ccccc2)cc1 [Sulfabenzamide],0.976
18,CCN(CC)CCCC(C)Nc1ccnc2cc(Cl)ccc12 (configuration not stated) [Chloroquine diphosphate],1.05
19,CS(=O)(=O)c1ccc([C@@H](O)[C@@H](CF)NC(=O)C(Cl)Cl)cc1 [Florfenicol],1.01
20,c1ccc2c(c1)CCCC2C1=NCCN1 (configuration not stated) [Tetrahydrozoline hydrochloride],1.11
21,C[C@@H](O)[C@H]1C(=O)N2C(C(=O)O)=C(SCCNC=N)C[C@H]12 [Imipenem],0.806
22,"OCC(O)CN1CCN(c2ccccc2)CC1 (racemic) [Dropropizine (R,S)]",1.39
23,CNc1ncnc2c1ncn2[C@@H]1O[C@H](CO)[C@@H](O)[C@H]1O [N6-methyladenosine],0.58
24,CC(C)(C)C(=O)OCOC(=O)[C@@H]1N2C(=O)[C@@H](/N=C/N3CCCCCC3)[C@H]2SC1(C)C [Pivmecillinam hydrochloride],0.889

row,Structure (SMILES),% Pdx1+ Ins1-low
1,O=C1NCCN1c1ncc([N+](=O)[O-])s1 [Niridazole],0.824
2,C=C(C)[C@@H]1CC[C@]2(C(=O)O)CC[C@]3(C)[C@H](CC[C@@H]4[C@@]5(C)CC[C@H](O)C(C)(C)[C@@H]5CC[C@]43C)[C@@H]12 [Betulinic acid],1.27
3,NNCCc1ccccc1 [Phenelzine sulfate],1.1
4,C=C1CC[C@H](O)C/C1=C/C=C1\CCC[C@]2(C)[C@@H]([C@H](C)CCCC(C)C)CC[C@@H]12 [Cholecalciferol],0.985
5,CC(Cc1cccc(C(F)(F)F)c1)NCCOC(=O)c1ccccc1 (configuration not stated) [Benfluorex hydrochloride],0.779
6,CC(=O)S[C@@H]1CC2=CC(=O)CC[C@]2(C)[C@H]2CC[C@@]3(C)[C@@H](CC[C@@]34CCC(=O)O4)[C@H]12 [Spironolactone],0.917
7,N=C(N)NC(=N)NCCc1ccccc1 [Phenformin hydrochloride],1.17
8,CC(C)(C)NC[C@@H](O)COc1cccc2c1CCCC2=O [(+) -Levobunolol hydrochloride],1.35
9,CN1CCC(=C2c3ccccc3C=Cc3ccccc32)CC1 [Cyproheptadine hydrochloride],1.48
10,OCCN1CCN(CC/C=C2/c3ccccc3Sc3ccc(C(F)(F)F)cc32)CC1 [Flupentixol dihydrochloride cis-(Z)],0.718
11,CC[N+](C)(C)c1cccc(O)c1 [Edrophonium chloride],1.01
12,CCCOc1cc(N)ccc1C(=O)OCCN(CC)CC [Propoxycaine hydrochloride],0.986
13,CCN[C@H]1CN(CCCOC)S(=O)(=O)c2sc(S(N)(=O)=O)cc21 [Brinzolamide],1.07
14,Cc1ncc(C[n+]2csc(CCO)c2C)c(N)n1 [Thiamine hydrochloride],0.76
15,C=CC(N)CCC(=O)O (configuration not stated) [Vigabatrin],1.48
16,NS(=O)(=O)c1cc(C2(O)NC(=O)c3ccccc32)ccc1Cl (configuration not stated) [Chlorthalidone],1.04
17,COc1ccc2c3c([nH]c2c1)[C@H]1C[C@H]2[C@H](C[C@@H](O)[C@H](OC)[C@H]2C(=O)O)CN1CC3 [Reserpinic acid hydrochloride],0.922
18,CC(=O)OCC(=O)[C@@]1(O)CC[C@H]2[C@@H]3CCC4=CC(=O)CC[C@]4(C)[C@@]3(F)[C@@H](O)C[C@@]21C [Fludrocortisone acetate],1.91
19,CC[N+](C)(CC)CCOC(=O)C1c2ccccc2Oc2ccccc21 [Methantheline bromide],1.02
20,COC(=O)Nc1nc2cc(C(=O)c3cccs3)ccc2[nH]1 [Nocodazole],0.707
21,Cc1ccc(C(=O)c2ccc(CC(=O)O)n2C)cc1 [Tolmetin sodium salt dihydrate],0.606
22,CCCCN(CCCC)CCCOC(=O)c1ccc(N)cc1 [Butacaine],1.02
23,CN(C)CCCN1c2ccccc2Sc2ccc(C(F)(F)F)cc21 [Triflupromazine hydrochloride],0.782
24,COc1ccc([C@@H]2CC(=O)c3c(O)cc(O)cc3O2)cc1O [Hesperetin],1.03
